# Measurements reported in PubChem BioAssay AID1159584 (Peter MacCallum Cancer Centre, 2016)
# Aim: 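Genes whose loss is lethal only together with E-cadherin loss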 (primary screen)
# Cell system: human MCF10A breast epithelial cells, parental and CDH1-null
# Reagents: siRNA against human genes
# Measured: 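ATP luminescence (CellTiter-Glo) viability per line relative to mean mock wells over all plates, and the ratio of CDH1-null to parental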
# Direction: CDH1-null / parental viability ratio: higher = CDH1-null cells survive relatively better than parental
# Shown is one part, drawn at random, of about 18,000 deposited reagents. Not all columns of the deposit are shown. No sequences are given here. Not given: the amount of reagent, the time to read-out.
target gene,CDH1-null / parental viability ratio
DDX12P (GeneID 440081),0.97
IGFL2 (GeneID 147920),1.04
MYH7B (GeneID 57644),1.08
DYNC2I2 (GeneID 89891),1.13
MRPL45 (GeneID 84311),1.2
AKR1C8 (GeneID 340811),0.77
APH1A (GeneID 51107),0.7
DEFB103B (GeneID 55894),1.14
SLC4A3 (GeneID 6508),0.95
NSUN4 (GeneID 387338),0.95
SLC25A20 (GeneID 788),0.88
MROH5 (GeneID 389690),0.92
FAS (GeneID 355),0.88
YWHAH (GeneID 7533),1
C1orf94 (GeneID 84970),1.05
GDPD3 (GeneID 79153),0.94
CPED1 (GeneID 79974),1.01
EMD (GeneID 2010),0.97
KCNJ8 (GeneID 3764),1.24
GSTT1 (GeneID 2952),0.97
ODAPH (GeneID 152816),0.82
COL24A1 (GeneID 255631),1.02
PHYHD1 (GeneID 254295),1.05
CDC23 (GeneID 8697),0.85
PRR27 (GeneID 401137),1.3
ZNF385A (GeneID 25946),1.36
CCDC6 (GeneID 8030),1.02
GNA13 (GeneID 10672),1.07
